For the experiment, the target named is T1, PQN-59 (C. elegans (endogenous in N2 embryos)) (UniProt O61708).
T1 sequence: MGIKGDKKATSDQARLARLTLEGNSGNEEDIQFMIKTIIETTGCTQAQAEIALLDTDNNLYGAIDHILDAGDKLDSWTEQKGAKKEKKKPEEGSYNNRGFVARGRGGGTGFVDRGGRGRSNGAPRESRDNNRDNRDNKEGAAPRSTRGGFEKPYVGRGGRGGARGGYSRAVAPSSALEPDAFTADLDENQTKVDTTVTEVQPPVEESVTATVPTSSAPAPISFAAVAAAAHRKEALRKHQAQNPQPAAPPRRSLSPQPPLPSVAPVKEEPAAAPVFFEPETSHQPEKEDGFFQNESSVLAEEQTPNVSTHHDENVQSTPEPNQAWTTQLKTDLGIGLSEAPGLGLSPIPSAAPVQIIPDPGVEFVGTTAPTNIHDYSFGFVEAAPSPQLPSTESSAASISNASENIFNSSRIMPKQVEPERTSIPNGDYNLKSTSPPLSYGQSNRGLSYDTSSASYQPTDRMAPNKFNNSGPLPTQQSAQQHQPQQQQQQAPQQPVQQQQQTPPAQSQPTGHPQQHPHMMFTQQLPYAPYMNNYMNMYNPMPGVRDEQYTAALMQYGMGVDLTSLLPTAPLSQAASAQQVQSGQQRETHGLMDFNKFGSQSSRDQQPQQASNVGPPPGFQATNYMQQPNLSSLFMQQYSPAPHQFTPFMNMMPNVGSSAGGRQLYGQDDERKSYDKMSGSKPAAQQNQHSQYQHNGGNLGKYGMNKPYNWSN
Description: affinity purification with mass spectrometry; PQN-59 serum (pre-serum as control) on Protein G UltraLink Resin, about 2 mg of N2 embryonic protein homogenate, 2 hours on ice; IP buffer 100 mM KCl, 50 mM Tris pH 7.5, 1 mM MgCl2, 1 mM DTT, 5% glycerol, 0.05% NP40, 1 mM EDTA; eluted in 0.15% TFA; three IP samples from two homogenates.

Chains of the proteins cited; added tags and fusions are not shown.
UniProt G5EES3: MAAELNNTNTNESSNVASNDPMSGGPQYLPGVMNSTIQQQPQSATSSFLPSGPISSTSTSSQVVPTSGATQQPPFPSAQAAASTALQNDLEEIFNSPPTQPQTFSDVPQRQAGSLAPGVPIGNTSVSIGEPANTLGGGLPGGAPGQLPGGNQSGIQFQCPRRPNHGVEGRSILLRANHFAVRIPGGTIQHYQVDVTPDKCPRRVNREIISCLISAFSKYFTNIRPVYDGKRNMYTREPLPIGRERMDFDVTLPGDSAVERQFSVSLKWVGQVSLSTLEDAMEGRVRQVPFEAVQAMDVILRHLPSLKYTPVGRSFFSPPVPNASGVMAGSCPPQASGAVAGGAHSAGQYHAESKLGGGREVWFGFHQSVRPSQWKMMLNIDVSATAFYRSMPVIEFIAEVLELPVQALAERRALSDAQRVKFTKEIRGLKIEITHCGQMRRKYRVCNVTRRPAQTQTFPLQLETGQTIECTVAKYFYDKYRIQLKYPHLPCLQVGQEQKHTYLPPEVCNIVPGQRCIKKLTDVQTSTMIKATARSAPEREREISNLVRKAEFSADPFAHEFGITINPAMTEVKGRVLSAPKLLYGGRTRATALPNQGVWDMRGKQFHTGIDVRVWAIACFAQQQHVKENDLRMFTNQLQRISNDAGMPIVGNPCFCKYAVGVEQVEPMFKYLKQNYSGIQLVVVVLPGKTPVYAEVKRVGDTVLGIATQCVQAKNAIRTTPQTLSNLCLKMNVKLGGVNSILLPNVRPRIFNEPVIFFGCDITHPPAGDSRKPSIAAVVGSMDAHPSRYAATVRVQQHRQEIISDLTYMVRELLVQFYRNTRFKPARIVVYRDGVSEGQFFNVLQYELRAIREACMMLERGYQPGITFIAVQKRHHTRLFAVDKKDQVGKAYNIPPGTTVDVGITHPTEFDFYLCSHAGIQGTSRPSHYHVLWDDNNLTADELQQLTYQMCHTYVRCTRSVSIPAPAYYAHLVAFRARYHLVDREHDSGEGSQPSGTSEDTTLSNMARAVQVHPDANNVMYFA
UniProt Q21351: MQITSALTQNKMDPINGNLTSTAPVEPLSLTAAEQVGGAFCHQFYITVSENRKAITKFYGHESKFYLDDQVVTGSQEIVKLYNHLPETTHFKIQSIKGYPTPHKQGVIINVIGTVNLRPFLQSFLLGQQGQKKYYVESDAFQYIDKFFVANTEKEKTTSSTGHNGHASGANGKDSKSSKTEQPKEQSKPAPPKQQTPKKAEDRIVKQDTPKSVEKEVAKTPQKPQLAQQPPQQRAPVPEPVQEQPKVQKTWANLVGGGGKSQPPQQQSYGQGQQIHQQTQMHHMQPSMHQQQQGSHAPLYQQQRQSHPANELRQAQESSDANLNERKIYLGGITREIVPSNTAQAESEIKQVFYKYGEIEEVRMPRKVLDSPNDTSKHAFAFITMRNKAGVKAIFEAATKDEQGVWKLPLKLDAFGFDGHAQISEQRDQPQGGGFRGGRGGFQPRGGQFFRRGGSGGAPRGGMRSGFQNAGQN

No constants are given. Whether binding was seen depends on the method and setting. In cells and extracts the contact can be indirect. Here binding means that the protein was enriched with, or labelled near, the bait; the list need not be complete.

Turning to ALG-1 (from UniProt G5EES3 1-1023), the binding entry is on record as “binds”.
For the substance GTBP-1 (from UniProt Q21351 1-473), the binding result is “binds”.

The values above are taken from PMC8648105.
